In patent publication US20180325893A1, “SUBACUTE ADMINISTRATION OF NMDA MODULATORS ALONE OR IN COMBINATION” (Northwestern University, priority 2015, published 2018):
Peptide text beside a SMILES is read from it.

Key:
male C57BL/6J mice [1] = experiment: Novel object recognition (NOR), acute drug treatment / acute ketamine-induced deficit (Example 1); format: in vivo; settings: mean±S.E.M.
Description: (§1) Three cohorts of male C57BL/6J mice (2½-3 month old, Jackson, Mass., USA), N=40, 45, and 48 were used in Examples 1, 2, 3 respectively. Mice were group housed (five/cage) in a controlled environment held at 21±2° C. and 50±15% relative humidity with a 14:10 h light-dark period (lights on: 05:00 am). All experiments were conducted during the light phase. Food and water were available ad libitum. The mice were habituated to the colony upon arrival for a week, during which time, they were not handled. All experiments were conducted in accordance with Institutional Animal Care and Use Committee of Northwestern University, Chicago.
Rapastinel was obtained from SAI Life Sciences (India). PCP was a generous gift from National Institute of Drug Abuse. Ketamine was purchased from Sigma Aldrich (St. Louis, Mo.). Lurasidone was provided by Sumitomo Dainippon Pharma Co., Ltd. (Osaka, Japan). Rapastinel, PCP, and ketamine were dissolved in 0.9% sterile saline (Sal). PCP and ketamine were administered intraperitoneally (ip), at a volume of 10 mL/kg body weight. Rapastinel was given intravenously (iv). The dose of rapastinel (1.0 mg/kg) was chosen because it produced optimal enhancement in learning in both young adult and aged rats and in a trace eye blink conditioning task in rabbits. […] The dose for lurasidone (0.1 mg/kg) was chosen based on prior NOR studies in C57BL/6J mice which determined the effective dose of lurasidone to restore NOR in subchronic PCP-treated mice. […]
(§2) NOR testing in mice was slightly modified from Hashimoto et al (Hashimoto K.; Fujita Y.; Shimizu E.; Iyo M. European Journal of Pharmacology 2005, 519:114-7). […] Behavior was recorded on video for blind scoring of object exploration. […] The discrimination index (DI) [(time spent exploring the novel object—time spent exploring the familiar object)/total exploration time] was then calculated for retention trials. […]

male C57BL/6J mice [2] = experiment: NOR in subchronic ketamine-treated mice (Examples 2 and 3); format: in vivo; settings: mean±S.E.M.
Description: as §1
Rapastinel was obtained from SAI Life Sciences (India). PCP was a generous gift from National Institute of Drug Abuse. Ketamine was purchased from Sigma Aldrich (St. Louis, Mo.). Lurasidone was provided by Sumitomo Dainippon Pharma Co., Ltd. (Osaka, Japan). Rapastinel, PCP, and ketamine were dissolved in 0.9% sterile saline (Sal). PCP and ketamine were administered intraperitoneally (ip), at a volume of 10 mL/kg body weight. Rapastinel was given intravenously (iv). The dose of rapastinel (1.0 mg/kg) was chosen because it produced optimal enhancement in learning in both young adult and aged rats and in a trace eye blink conditioning task in rabbits. […] The dose for lurasidone (0.1 mg/kg) was chosen based on prior NOR studies in C57BL/6J mice which determined the effective dose of lurasidone to restore NOR in subchronic PCP-treated mice.
For acute drug treatments, rapastinel (1.0 mg/kg, iv), lurasidone (0.1 mg/kg, i.p.) or ketamine (30 mg/kg, ip) were administered 30 min prior to the acquisition trial of the NOR task (described below) to the subchronic ketamine or subchronic PCP-treated animals. For subchronic drug treatments, 7-10 mice/cohort were randomly assigned to Sal, PCP, or ketamine. The Sal-treated mice received 0.9% NaCl; the drug treatment groups received either PCP (10 mg/kg; ip), or ketamine (30 mg/kg; ip) twice daily for 7 days. This was followed by a 7 day washout period during which time, mice were left undisturbed in the home cage until initiation of habituation (see below).
as §2, with “519:114-7). […] Similar observations were made when large objects were used. […] It was observed that C57BL/6J mice explored less when the duration of trials were 3 or 5.” for “519:114-7).”

[3] = acute drug plus sal, rapastinel 1.0 mg/kg, ketamine 30 mg/kg

Structure (SMILES) | total exploration times (acquisition trial+retention trial) (male C57BL/6J mice [1]; [3]) | total exploration times (acquisition trial+retention trial) (male C57BL/6J mice [1]; rapastinel 1.0 mg/kg plus acute ketamine 30 mg/kg) | total exploration times (acquisition trial+retention trial) (male C57BL/6J mice [2]; Example 2, subchronic ketamine+rapastinel 1.0 mg/kg) | total exploration times (acquisition trial+retention trial) (male C57BL/6J mice [2]; Example 3, subchronic ketamine plus subeffective dose rapastinel (0.3 mg/kg) and/or lurasidone (0.1 mg/kg)) | total exploration times (acquisition trial+retention trial) (male C57BL/6J mice [2]; Example 2, subchronic ketamine alone) | total exploration times (acquisition trial+retention trial) (male C57BL/6J mice [2]; Example 3, subchronic ketamine alone)
CC(O)C(N)C(=O)N1CCCC1C(=O)N1CCCC1C(=O)NC(C(N)=O)C(C)O (stereo not shown) [rapastinel, Rapastinel] (H-TPPT-NH2; configuration not given here) | 76.8 ± 3.8 s | 79.2 ± 8.3 s | 86.2 ± 8.3 s | 73.2 ± 4.7 s |  | 
CNC1(c2ccccc2Cl)CCCCC1=O (stereo not shown) [ketamine, Ketamine, reference compound] | 82.4 ± 11.0 s |  |  |  | 80.3 ± 7.2 s | 86.3 ± 5.2 s
